Assay results reported in publication doi:10.1101/2024.12.13.628402 (bioRxiv, 2024).
Results are given in words; binding and its absence hold for the method and conditions named. Binding seen in cells or lysates may run through a third protein. These calls come from enrichment with a bait or labelling near it, and not all partners need be listed. For some assays here: Tags and fused reporters may be left off the sequences shown.

By UniProt entry, the sequences of proteins in these tests, tags left out.
UniProt P0AA53: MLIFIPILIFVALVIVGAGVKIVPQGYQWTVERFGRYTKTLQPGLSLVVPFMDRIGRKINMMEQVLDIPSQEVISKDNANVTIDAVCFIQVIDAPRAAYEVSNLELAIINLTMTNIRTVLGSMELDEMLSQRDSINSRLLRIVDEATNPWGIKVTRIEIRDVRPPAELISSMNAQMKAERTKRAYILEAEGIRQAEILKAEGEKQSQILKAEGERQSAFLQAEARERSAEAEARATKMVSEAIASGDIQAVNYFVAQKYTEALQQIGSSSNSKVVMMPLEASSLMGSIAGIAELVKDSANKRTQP
UniProt P0AAI3: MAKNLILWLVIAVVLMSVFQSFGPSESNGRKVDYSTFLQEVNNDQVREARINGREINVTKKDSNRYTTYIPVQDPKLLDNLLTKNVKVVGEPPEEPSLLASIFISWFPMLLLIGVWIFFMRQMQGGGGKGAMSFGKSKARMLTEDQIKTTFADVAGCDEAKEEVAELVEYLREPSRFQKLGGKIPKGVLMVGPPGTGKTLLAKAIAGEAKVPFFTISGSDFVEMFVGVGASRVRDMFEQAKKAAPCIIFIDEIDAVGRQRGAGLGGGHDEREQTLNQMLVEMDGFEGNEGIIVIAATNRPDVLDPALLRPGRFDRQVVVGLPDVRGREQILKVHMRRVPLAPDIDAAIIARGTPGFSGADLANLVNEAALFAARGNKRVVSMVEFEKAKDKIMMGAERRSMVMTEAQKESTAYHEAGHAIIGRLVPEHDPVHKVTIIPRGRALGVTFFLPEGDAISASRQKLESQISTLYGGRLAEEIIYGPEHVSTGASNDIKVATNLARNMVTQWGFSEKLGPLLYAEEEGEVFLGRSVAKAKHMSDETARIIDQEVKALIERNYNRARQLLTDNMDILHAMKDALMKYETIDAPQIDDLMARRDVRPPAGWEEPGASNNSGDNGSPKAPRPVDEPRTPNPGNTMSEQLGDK

T1: YibN-SPA (E. coli) (UniProt P0AG27)
T1 sequence: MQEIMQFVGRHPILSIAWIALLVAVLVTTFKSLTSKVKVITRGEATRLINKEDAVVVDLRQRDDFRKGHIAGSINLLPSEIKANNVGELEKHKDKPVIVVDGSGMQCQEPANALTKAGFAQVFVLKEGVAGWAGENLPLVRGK

T2: YidC-BirA* (E. coli) (UniProt P25714)
T2 sequence: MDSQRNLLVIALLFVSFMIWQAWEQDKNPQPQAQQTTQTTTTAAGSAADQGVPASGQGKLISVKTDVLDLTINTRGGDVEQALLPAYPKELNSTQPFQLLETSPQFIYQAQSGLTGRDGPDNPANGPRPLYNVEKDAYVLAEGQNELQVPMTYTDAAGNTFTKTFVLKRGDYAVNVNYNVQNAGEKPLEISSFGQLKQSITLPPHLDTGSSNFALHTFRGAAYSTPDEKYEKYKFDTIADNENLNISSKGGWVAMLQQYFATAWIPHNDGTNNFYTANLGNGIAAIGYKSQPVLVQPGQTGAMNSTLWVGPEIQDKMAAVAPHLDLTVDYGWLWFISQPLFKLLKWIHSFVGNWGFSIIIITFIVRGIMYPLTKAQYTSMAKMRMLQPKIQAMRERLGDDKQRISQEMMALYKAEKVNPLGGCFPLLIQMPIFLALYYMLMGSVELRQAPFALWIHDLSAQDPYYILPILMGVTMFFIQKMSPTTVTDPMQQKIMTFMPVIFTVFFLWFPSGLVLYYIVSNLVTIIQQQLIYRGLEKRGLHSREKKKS

T3: His6-YidC (E. coli, UniProt P25714 1-548)
T3 sequence (looked up): T2 sequence

T4: YibN-His6 (E. coli) (UniProt P0AG27)
T4 sequence: T1 sequence

B1: YibN-His6 (natural protein, E. coli, UniProt P0AG27 1-143, looked up)
chain: T1 sequence
B2: YgfX (protein, UniProt Q46824 1-135)
chain: MVLWQSDLRVSWRAQWLSLLIHGLVAAVILLMPWPLSYTPLWMVLLSLVVFDCVRSQRRINARQGEIRLLMDGRLRWQGQEWSIVKAPWMIKSGMMLRLRSDGGKRQHLWLAADSMDEAEWRDLRRILLQQETQR
B3: HflK (protein, UniProt P0ABC7 1-419)
chain: MAWNQPGNNGQDRDPWGSSKPGGNSEGNGNKGGRDQGPPDLDDIFRKLSKKLGGLGGGKGTGSGGGSSSQGPRPQLGGRVVTIAAAAIVIIWAASGFYTIKEAERGVVTRFGKFSHLVEPGLNWKPTFIDEVKPVNVEAVRELAASGVMLTSDENVVRVEMNVQYRVTNPEKYLYSVTSPDDSLRQATDSALRGVIGKYTMDRILTEGRTVIRSDTQRELEETIRPYDMGITLLDVNFQAARPPEEVKAAFDDAIAARENEQQYIREAEAYTNEVQPRANGQAQRILEEARAYKAQTILEAQGEVARFAKLLPEYKAAPEITRERLYIETMEKVLGNTRKVLVNDKGGNLMVLPLDQMLKGGNAPAAKSDNGASNLLRLPPASSSTTSGASNTSSTSQGDIMDQRRANAQRNDYQRQGE
B4: HflC (protein, UniProt P0ABC3 1-334)
chain: MRKSVIAIIIIVLVVLYMSVFVVKEGERGITLRFGKVLRDDDNKPLVYEPGLHFKIPFIETVKMLDARIQTMDNQADRFVTKEKKDLIVDSYIKWRISDFSRYYLATGGGDISQAEVLLKRKFSDRLRSEIGRLDVKDIVTDSRGRLTLEVRDALNSGSAGTEDEVTTPAADNAIAEAAERVTAETKGKVPVINPNSMAALGIEVVDVRIKQINLPTEVSEAIYNRMRAEREAVARRHRSQGQEEAEKLRATADYEVTRTLAEAERQGRIMRGEGDAEAAKLFADAFSKDPDFYAFIRSLRAYENSFSGNQDVMVMSPDSDFFRYMKTPTSATR
B5: YidC (endogenous) (protein, UniProt P25714 1-548)
chain: T2 sequence
B6: YajC (protein, UniProt P0ADZ7 1-110)
chain: MSFFISDAVAATGAPAQGSPMSLILMLVVFGLIFYFMILRPQQKRTKEHKKLMDSIAKGDEVLTNGGLVGRVTKVAENGYIAIALNDTTEVVIKRDFVAAVLPKGTMKAL
B7: GntR (protein, UniProt P0ACP5 1-331)
chain: MKKKRPVLQDVADRVGVTKMTVSRFLRNPEQVSVALRGKIAAALDELGYIPNRAPDILSNATSRAIGVLLPSLTNQVFAEVLRGIESVTDAHGYQTMLAHYGYKPEMEQERLESMLSWNIDGLILTERTHTPRTLKMIEVAGIPVVELMDSKSPCLDIAVGFDNFEAARQMTTAIIARGHRHIAYLGARLDERTIIKQKGYEQAMLDAGLVPYSVMVEQSSSYSSGIELIRQARREYPQLDGVFCTNDDLAVGAAFECQRLGLKVPDDMAIAGFHGHDIGQVMEPRLASVLTPRERMGSIGAERLLARIRGESVTPKMLDLGFTLSPGGSI

Key:
YibN-SPA (E. coli) = target: T1, YibN-SPA (E. coli); assay: affinity purification with mass spectrometry
YidC-BirA* (E. coli) = target: T2, YidC-BirA* (E. coli); assay: proximity labelling
His6-YidC = target: T3, His6-YidC; assay: affinity purification with mass spectrometry
YibN-His6 (E. coli) = target: T4, YibN-His6 (E. coli); assay: affinity purification with mass spectrometry

Row | Molecule | binding (YibN-SPA (E. coli)) | binding (YidC-BirA* (E. coli)) | also measured
1 | QmcA (from UniProt P0AA53 1-305) | binds |  | 
2 | FtsH (from UniProt P0AAI3 1-644) |  | binds | 
3 | B1 |  | binds | binding (His6-YidC): binds
4 | B2 | binds |  | 
5 | B3 |  | binds | 
6 | B4 |  | binds | 
7 | B5 | binds |  | binding (YibN-His6 (E. coli)): binds
8 | B6 | binds |  | 
9 | B7 | binds |  | 
